{"source": "patent US20250375417A1", "about": "“OREXIN RECEPTOR 2 (OX2R) AGONIST FOR USE IN NARCOLEPSY TYPE 1 (NT1)” (TAKEDA PHARMACEUTICAL COMPANY LIMITED, priority 2024, published 2025)", "test_system": "participants with NT1", "assay": "Treatment Satisfaction Questionnaire for Medication (TSQM), Phase 2 NT1 trial", "type": "in vivo, human", "key": {"[1]": {"conditions": "Week 8, range across Compound A doses"}}}
{"smiles": "CCS(=O)(=O)N[C@@H]1[C@H](Cc2cccc(-c3cc(F)cc(F)c3)c2F)N(C(=O)C(C)(C)O)CC1(F)F", "note": "[Compound A, N-{(2S,3R)-4,4-difluoro-1-(2-hydroxy-2-methylpropanoyl)-2-[(2,3′,5′-trifluoro[1,1′-biphenyl]-3-yl)methyl]pyrrolidin-3-yl}ethanesulfonamide]", "values": [{"measurement": "TSQM satisfaction with side-effects score", "setting": "Week 8, 7 mg-dose", "result": 85.9}, {"measurement": "TSQM satisfaction with side-effects score", "setting": "Week 8, across Compound A treatment arms (other than 7 mg)", "result": "92.4-96.4"}, {"measurement": "LS mean TSQM effectiveness domain score", "setting": "[1]", "result": "67.7-80.5"}, {"measurement": "LS mean TSQM global satisfaction domain score", "setting": "[1]", "result": "71.0-83.7"}, {"measurement": "TSQM convenience domain score", "setting": "[1]", "result": "70.9-74.6"}]}
